# Some of the results follow. Further columns of the screen follow, without active or inactive calls. Compounds called inactive in the main read-out are mostly missing here. The note in brackets gives the kind of curve behind each potency; many fits are weak.
# Assay: qHTS Assay for Lipid Storage Modulators in Drosophila S3 Cells;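 on cell number change: cells counted by Cell Tracker Red CMTPX staining in the red channel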
# Conditions: BODIPY lipid droplet fluorescence, 18-24 h; for cell number change: measured here: cell count max response, cells fed with added oleic acid
# How it was run: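 Drosophila S3 cells loaded with oleic acid (400 uM, as added) and compounds at several concentrations; lipid droplets imaged by 488-nm laser-scanning cytometry, 500–530 nm intensity and object ratio to cell channel. Percent activity normalized to 20 uM Triacsin C.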
# [1] = measured here: cell number channel AC50, cells fed with added oleic acid
# [2] = measured here: lipid fluorescence (Fed channel) AC50, cells fed with added oleic acid
Structure (SMILES),AC50 [1],AC50 [2],cell number change [%]
O=C(c1ccc(Cl)cc1)c1cnc2ccccn12,"6.51 µM [rising, single point]","4.61 µM [rising, full curve, poor fit]",
Oc1cc(-n2cccn2)c(O)cc1-n1cccn1,"0.0058 µM [falling, full curve, poor fit]",,-51.7
Cc1cc(C)n(-c2ccc(C(=O)Nc3cccc([N+](=O)[O-])c3)cc2)n1,,"6.51 µM [falling, single point]",-2.62
CCN1CCN(CC2CC3C=CC2C3)CC1 (stereo unspecified),,"6.51 µM [rising, single point]",
Cc1ncc(N=Nc2ccccc2)c(-c2ccccc2)n1,,"20.6 µM [falling, partial curve]",-28.3
Cc1cc(C(=O)CCC(=O)NNC(=O)c2ccccc2O)c(C)s1,,"0.164 µM [falling, full curve, poor fit]",2.94
O=C(CN1C(=O)c2ccccc2S1(=O)=O)NCCSCc1cccc(Cl)c1,,,9.21
Cc1csc(NC(=O)C2CCN(S(=O)(=O)c3cccs3)CC2)n1,"18.4 µM [rising, single point]","29.1 µM [rising, single point]",34.3
CN(c1ccccc1)S(=O)(=O)c1cccc(C(=O)NCc2ccccc2)c1,,"14.6 µM [falling, partial curve]",22.4
O=C(NC1CCCCC1NC(=O)c1cccs1)c1cccs1 (stereo unspecified),,,9.65
CCOC(=O)CCCc1ccc(/C(C)=N/NC(=S)NC)cc1,,"3.26 µM [falling, single point]",-4.34
CC(C)(C)c1ccc(OCC(=O)NNC(=O)c2cccnc2)cc1,,"6.51 µM [falling, single point]",0.249
CCc1cccc(NC(=O)c2cccc3c2C(=O)N(CC2CCCO2)C3)c1 (stereo unspecified),,"11.6 µM [falling, single point]",-12.7
CSc1nc2ccccc2c(=O)n1C1CCCCC1,"0.291 µM [rising, full curve]","29.1 µM [rising, single point]",18.3
COc1ccc(-c2nn(-c3ccccc3)cc2C(=O)Nc2ccc(C(=O)O)cc2)cc1OC,,"29.1 µM [falling, single point]",2.56
O=C(NCC1CCS(=O)(=O)C1)Oc1ccccc1 (stereo unspecified),,,-11.5
Cc1ccc(C)c(OCCC(=O)N2CCN(S(=O)(=O)c3cc(C)ccc3C)CC2)c1,"4.61 µM [rising, full curve, poor fit]","1.03 µM [rising, partial curve]",41.9
O=C(NC(=S)NCCCN1CCOCC1)c1ccc(Br)cc1,,"0.731 µM [falling, full curve]",-29.7
COc1cccc(/C=N/NC(=O)c2cc3c(OC)c(OC)ccc3[nH]2)c1OC,,"1.64 µM [rising, partial curve]",-2.73
COc1ccc(-n2nc(C(=O)NCC(=O)NCCC3=CCCCC3)c3ccccc3c2=O)cc1OC,"0.206 µM [falling, full curve]",,-40.5
Cc1ccccc1OCC(=O)N/N=C/c1cccc2cccnc12,,"16.4 µM [falling, partial curve]",-20.2

# 19 structures out of the list, ordered by formula weight, high to low.
Structure (SMILES),AC50 [1],AC50 [2],cell number change [%]
COc1ccc(-n2nc(C(=O)NCC(=O)NCCC3=CCCCC3)c3ccccc3c2=O)cc1OC,"0.206 µM [falling, full curve]",,-40.5
COc1ccc(-c2nn(-c3ccccc3)cc2C(=O)Nc2ccc(C(=O)O)cc2)cc1OC,,"29.1 µM [falling, single point]",2.56
O=C(CN1C(=O)c2ccccc2S1(=O)=O)NCCSCc1cccc(Cl)c1,,,9.21
O=C(NC(=S)NCCCN1CCOCC1)c1ccc(Br)cc1,,"0.731 µM [falling, full curve]",-29.7
COc1cccc(/C=N/NC(=O)c2cc3c(OC)c(OC)ccc3[nH]2)c1OC,,"1.64 µM [rising, partial curve]",-2.73
CN(c1ccccc1)S(=O)(=O)c1cccc(C(=O)NCc2ccccc2)c1,,"14.6 µM [falling, partial curve]",22.4
Cc1csc(NC(=O)C2CCN(S(=O)(=O)c3cccs3)CC2)n1,"18.4 µM [rising, single point]","29.1 µM [rising, single point]",34.3
CCc1cccc(NC(=O)c2cccc3c2C(=O)N(CC2CCCO2)C3)c1 (stereo unspecified),,"11.6 µM [falling, single point]",-12.7
Cc1cc(C(=O)CCC(=O)NNC(=O)c2ccccc2O)c(C)s1,,"0.164 µM [falling, full curve, poor fit]",2.94
Cc1cc(C)n(-c2ccc(C(=O)Nc3cccc([N+](=O)[O-])c3)cc2)n1,,"6.51 µM [falling, single point]",-2.62
O=C(NC1CCCCC1NC(=O)c1cccs1)c1cccs1 (stereo unspecified),,,9.65
CC(C)(C)c1ccc(OCC(=O)NNC(=O)c2cccnc2)cc1,,"6.51 µM [falling, single point]",0.249
CCOC(=O)CCCc1ccc(/C(C)=N/NC(=S)NC)cc1,,"3.26 µM [falling, single point]",-4.34
Cc1ccccc1OCC(=O)N/N=C/c1cccc2cccnc12,,"16.4 µM [falling, partial curve]",-20.2
Cc1ncc(N=Nc2ccccc2)c(-c2ccccc2)n1,,"20.6 µM [falling, partial curve]",-28.3
O=C(NCC1CCS(=O)(=O)C1)Oc1ccccc1 (stereo unspecified),,,-11.5
O=C(c1ccc(Cl)cc1)c1cnc2ccccn12,"6.51 µM [rising, single point]","4.61 µM [rising, full curve, poor fit]",
Oc1cc(-n2cccn2)c(O)cc1-n1cccn1,"0.0058 µM [falling, full curve, poor fit]",,-51.7
CCN1CCN(CC2CC3C=CC2C3)CC1 (stereo unspecified),,"6.51 µM [rising, single point]",

# (cont.)

Structure (SMILES),AC50 [1],AC50 [2],cell number change [%]
Cc1sc2c(=O)n3c(nc2c1C(=O)NCCCN1CCOCC1)CCCCC3,,"14.6 µM [rising, partial curve]",9.52
COc1ccc(C(=O)NC(=S)Nc2ccc3oc(=O)ccc3c2)cc1,,,-16.6
COc1ccc(Br)cc1S(=O)(=O)N(CC(=O)N1CCN(C)CC1)c1ccccc1,"14.6 µM [falling, single point]",,-54.2
COc1ccccc1NS(=O)(=O)c1cccc(NC(=O)c2sc3ccccc3c2Cl)c1,,,-41.3
Cc1ccc(CNC(=O)CN2CCC(C(N)=O)CC2)cc1,"0.116 µM [falling, full curve, poor fit]",,-2.27
NC(=O)c1nn(CC(=O)Nc2cccc(S(=O)(=O)N3CCCC3)c2)c(=O)c2ccccc12,,"0.00461 µM [falling, full curve, poor fit]",-6.18
COc1ccc(OC)c(/C=C2\Oc3cc(OCC(=O)N4CCC[C@H]4C(=O)O)ccc3C2=O)c1,"32.6 µM [rising, single point]","23.1 µM [rising, single point]",32.7
Cc1cccc(N(CC(=O)O)CC(=O)O)c1,,,-2.28
O=C(CCN1C(=O)/C(=C/c2cccs2)SC1=S)N1CCCCC1,"2.59 µM [rising, full curve]",,46.1
O=c1[nH]cc(N(CCO)CCO)c(=O)[nH]1,"29.1 µM [rising, single point]",,45.4
CN(C)C(=O)C[n+]1ccc(/C=N/O)cc1,,"0.731 µM [rising, partial curve, poor fit]",0.247
COc1cc(/C=C/C(=O)Nc2ccncc2)cc(OC)c1OC,,"1.46 µM [rising, partial curve]",20.7
CC(C)(C)NC(=O)CSc1nc2ccc(NC(=O)CSc3nnc(N)s3)cc2s1,,"16.4 µM [falling, partial curve]",
CSc1nc(N2CCCC2)c2c(c1C#N)CC(C)(C)OC2,,"0.206 µM [falling, full curve, poor fit]",-10.6
COCCC(=O)N1CCCC(C(=O)c2ccc(Oc3ccccc3)cc2)C1 (stereo unspecified),,"29.1 µM [falling, single point]",-15
Cc1cccc(NC(=O)Nc2ccc(S(=O)(=O)Nc3onc(C)c3C)cc2)c1,,"20.6 µM [rising, single point]",-11.1
Cc1ccc(S(=O)(=O)N2CCCC(C(=O)Nc3ccc(C(=O)O)cc3)C2)cc1Cl (stereo unspecified),"18.4 µM [rising, single point]",,55.3
O=C(NCCN1CCCCC1)c1ccc(/C=N/O)nc1,,,-18.6
COc1ccc(-c2noc(CCC(=O)NC3CCCCC3)n2)cc1OC,,,12.4
Fc1cc(F)cc(Nc2nc(Cl)nc(NC3CCCC3)n2)c1,"5.17 µM [falling, single point]","13 µM [falling, single point]",-75.5
Cc1nc2oc(C(=O)c3ccc(Br)cc3)c(N)c2c2c1COC(C)(C)C2,,"18.4 µM [rising, single point]",-5.82

Structure (SMILES),AC50 [1],AC50 [2],cell number change [%]
CCN(CC(=O)Nc1ccc2c(c1)OCO2)S(=O)(=O)c1ccccc1,,"6.51 µM [rising, single point]",-3.36
CCNC(=S)N(CCc1c(C)[nH]c2ccc(C)cc12)Cc1ccco1,,"29.1 µM [rising, single point]",
Cc1cc(OCC(=O)NNC(=O)c2cccnc2)cc(C)c1Cl,"29.1 µM [rising, single point]",,36.3
Nc1nc(Nc2cccc(Cl)c2)nc(NCc2ccco2)c1[N+](=O)[O-],"20.6 µM [falling, single point]","16.4 µM [falling, single point]",-34.9
CSc1ccccc1NC(=O)CN1C(=O)C2CC=CCC2C1=O (stereo unspecified),"6.51 µM [falling, single point]","6.51 µM [falling, single point]",-15.6
Cn1c(=O)c2c(nc(NNC(=O)C(F)(F)F)n2C)n(C)c1=O,,"14.6 µM [rising, partial curve]",31.4
O=C(CNC(=O)N1CC(=O)Nc2ccccc21)Nc1nccs1,,"20.6 µM [rising, partial curve]",8.02
O=C1c2ccccc2C(=O)N1CCSc1n[nH]c(=S)s1,,"6.51 µM [falling, single point]",
CC1CCC2(CC1)NC(=O)N(NC(=O)c1cc3ccccc3o1)C2=O (stereo unspecified),,"1.84 µM [rising, full curve, poor fit]",5.35
COc1ccc(N(C(=O)CNS(=O)(=O)c2ccccc2)C(C(=O)NCc2ccco2)C(C)C)cc1 (stereo unspecified),,"6.51 µM [falling, full curve, poor fit]",-8.55
CSc1ccc(/C=N/NC(=O)c2cccs2)cc1,,"1.64 µM [rising, partial curve, poor fit]",16.8
O=C(O)COc1c(F)c(F)c(C(F)(F)F)c(F)c1F,"0.92 µM [rising, full curve, poor fit]",,26
COc1ccc2c(c1)OC[C@H]1[C@H]2N2C(=O)CN(Cc3ccco3)C(=O)[C@@]2(C)[C@H]1c1ccccc1,,"0.103 µM [rising, full curve, poor fit]",3.75
CC(OC(=O)CN1C(=O)NC2(CCCC2)C1=O)C(=O)Nc1cccc(Cl)c1 (stereo unspecified),,"25.9 µM [falling, single point]",-25.8
O=C(CSc1nnc2c3ccccc3c3ccccc3c2n1)Nc1ccccc1,,,-1.24
Cc1ccc(C)c(NC(=O)CN(C)C(=O)c2ccc(-c3cccc(C(F)(F)F)c3)o2)c1,"0.461 µM [rising, full curve]",,
CCOC(=O)C1CCCN(c2ncnc3c2cnn3-c2ccc(Cl)cc2)C1 (stereo unspecified),,,80.1
O=C(CSc1nc(-c2ccccc2)cc(C(F)(F)F)n1)N1CCOCC1,,,-8.99
CCOC(=O)C(C(C)=O)C(c1ccc(OC)cc1)C(C(C)=O)C(=O)OCC (stereo unspecified),,"0.116 µM [falling, full curve, poor fit]",
CC(C)C(=O)N1CCN(c2nc(-c3ccccc3)c3c(c2C#N)CCCC3)CC1,,"1.16 µM [falling, full curve]",9.97
Cc1cc(=O)oc2c3c(cc(OCC(=O)NCc4ccccn4)c12)OC(C)(C)CC3,,"25.9 µM [falling, single point]",-17.8
